# Inconclusive results, whose numbers are uncertain, are shown with a selection of clear calls. Potencies of inconclusive entries are doubtful fits and often do not repeat. The source made the active and inactive calls. Calls follow the shape of the full dose curve.
# The chains behind the UniProt entries cited, without tags or fusion partners. Where a name states a change or a piece, a line headed by the entry shows the natural chain unless it says otherwise. Residues count along the entry.
# UniProt Q8JUX6, 220-798 limits assumed: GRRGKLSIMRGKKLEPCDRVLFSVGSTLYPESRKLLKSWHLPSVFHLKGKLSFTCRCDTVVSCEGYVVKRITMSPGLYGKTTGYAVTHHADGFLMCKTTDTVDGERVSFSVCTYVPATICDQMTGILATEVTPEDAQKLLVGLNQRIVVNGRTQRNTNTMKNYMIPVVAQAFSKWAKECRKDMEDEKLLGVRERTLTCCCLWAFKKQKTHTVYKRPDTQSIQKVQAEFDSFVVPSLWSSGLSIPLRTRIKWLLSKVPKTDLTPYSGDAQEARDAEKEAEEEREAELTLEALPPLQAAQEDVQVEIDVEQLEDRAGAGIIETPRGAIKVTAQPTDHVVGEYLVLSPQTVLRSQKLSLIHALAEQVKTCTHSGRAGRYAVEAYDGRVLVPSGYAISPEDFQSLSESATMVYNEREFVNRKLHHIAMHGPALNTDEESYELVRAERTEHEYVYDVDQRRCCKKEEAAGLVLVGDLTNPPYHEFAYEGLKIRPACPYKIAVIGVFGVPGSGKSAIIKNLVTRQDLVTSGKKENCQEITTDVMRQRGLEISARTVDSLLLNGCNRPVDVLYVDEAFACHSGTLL
# UniProt P00784: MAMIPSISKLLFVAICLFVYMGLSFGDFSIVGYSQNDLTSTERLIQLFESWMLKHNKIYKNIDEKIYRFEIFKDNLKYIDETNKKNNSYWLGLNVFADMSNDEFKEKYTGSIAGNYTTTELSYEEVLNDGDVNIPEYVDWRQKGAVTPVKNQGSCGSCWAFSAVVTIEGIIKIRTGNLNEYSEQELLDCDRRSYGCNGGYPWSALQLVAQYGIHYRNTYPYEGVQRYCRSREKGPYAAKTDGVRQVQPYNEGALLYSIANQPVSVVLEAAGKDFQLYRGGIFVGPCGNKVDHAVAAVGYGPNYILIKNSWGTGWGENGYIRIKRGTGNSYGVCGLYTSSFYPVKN
# UniProt P09958, whole entry, looked up: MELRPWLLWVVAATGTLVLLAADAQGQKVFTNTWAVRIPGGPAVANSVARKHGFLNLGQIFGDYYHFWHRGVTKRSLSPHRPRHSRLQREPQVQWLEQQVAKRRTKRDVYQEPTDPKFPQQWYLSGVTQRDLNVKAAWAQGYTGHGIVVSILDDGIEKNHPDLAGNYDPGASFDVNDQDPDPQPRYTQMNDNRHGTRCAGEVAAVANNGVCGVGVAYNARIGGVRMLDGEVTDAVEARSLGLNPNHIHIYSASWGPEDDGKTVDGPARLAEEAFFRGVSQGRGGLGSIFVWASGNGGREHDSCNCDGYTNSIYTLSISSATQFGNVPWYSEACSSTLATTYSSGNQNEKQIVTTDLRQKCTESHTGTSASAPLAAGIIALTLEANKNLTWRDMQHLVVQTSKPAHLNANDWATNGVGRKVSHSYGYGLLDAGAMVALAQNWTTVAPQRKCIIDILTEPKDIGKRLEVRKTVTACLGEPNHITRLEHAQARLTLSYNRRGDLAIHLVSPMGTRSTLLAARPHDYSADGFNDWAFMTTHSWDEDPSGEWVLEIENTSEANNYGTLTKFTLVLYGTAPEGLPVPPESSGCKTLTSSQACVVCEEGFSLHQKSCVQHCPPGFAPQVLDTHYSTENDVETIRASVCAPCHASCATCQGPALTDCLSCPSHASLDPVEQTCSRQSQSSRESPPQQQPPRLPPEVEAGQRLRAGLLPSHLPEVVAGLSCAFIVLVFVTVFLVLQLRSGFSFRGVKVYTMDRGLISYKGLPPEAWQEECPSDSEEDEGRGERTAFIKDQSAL
# Assays:
# [1] = biological target: Polyprotein P1234 (Chikungunya virus (strain S27-African prototype)) (UniProt Q8JUX6); experiment: Secondary cell base assay for inhibitors of NSP2Pro Chikungunya virus (CHIKV) (AID 1964100); also: nearly all actives have a fitted effect of over 70% in size
# Papain (Carica papaya) = Papain (Carica papaya) (UniProt P00784); experiment: Selectivity profile for inhibitors of NSP2Pro chikungunya virus (CHIKV): Papain Counterscreen (AID 1964104)
# [2] = tested on: Chikungunya virus nsP2 protease; experiment: Confirmatory qHTS for inhibitors of NSP2Pro chikungunya virus (CHIKV) (AID 1964105); also: nearly all actives have a fitted effect of over 75% in size
# [3] = biological target: Polyprotein P1234 (Chikungunya virus (strain S27-African prototype)) (UniProt Q8JUX6); experiment: Selectivity profile for inhibitors of NSP2Pro chikungunya virus (CHIKV): Endogenous NS2/3 peptide Counterscreen (AID 1964103); also: nearly all actives have a fitted effect of over 55% in size
# Furin (Homo sapiens) = Furin (Homo sapiens) (UniProt P09958); experiment: Selectivity profile for inhibitors of NSP2Pro chikungunya virus (CHIKV): Human furin counterscreen (AID 1964102)
# [4] = biological target: Polyprotein P1234 (Chikungunya virus (strain S27-African prototype)) (UniProt Q8JUX6); experiment: Selectivity profile for inhibitors of NSP2Pro chikungunya virus (CHIKV): Full length NSP2 enzyme counterscreen (CHIKV-NSP2) (AID 1964101); settings: Full-length CHIKV NSP2 protease enzymatic counterscreen; activity change, negative = inhibition: at 50.7 µM (top of the series); also: nearly all actives have a fitted effect of over 65% in size
# [5] = tested on: Hepatitis C virus NS3/4A protease; experiment: Selectivity profile for inhibitors of NSP2Pro chikungunya virus (CHIKV): NS34A-HCV Counterscreen (AID 1964106); settings: activity change, negative = inhibition: at 50.9 µM (top of the series) unless noted; also: nearly all actives have a fitted effect of over 55% in size
# Potency is read from the fitted curve at half-maximal effect.
structure (smiles),measurement,setting,value
Oc1cc(CNC(=S)/C=C/c2cc(O)c(O)c(Br)c2)cc(O)c1O,Potency,[1],active: 0.224 µM
same,Potency,Papain (Carica papaya),"inconclusive: 20.6 µM [inhibitor, partial curve, poor fit]"
same,Potency,[2],active: 5.04 µM
O=C1c2ccccc2C(=O)c2oc(-c3cccnc3)nc21,Potency,[1],"inconclusive: 0.73 µM [inhibitor, full curve]"
same,Potency,[3],"inconclusive: 0.461 µM [inhibitor, partial curve]"
same,Potency,[2],"inconclusive: 3.18 µM [inhibitor, partial curve]"
Oc1ccc(NCc2ccccc2OCc2ccccc2)cc1,Potency,[1],active: 11.6 µM
same,Potency,[3],active: 18.3 µM
same,Potency,[2],"inconclusive: 12.6 µM [inhibitor, partial curve, poor fit]"
Cc1nn(-c2ccccn2)c(C)c1[C@@H]1C=C[C@@H](NC(=O)NC(C)C)C1,Potency,[1],"inconclusive: 7.49 µM [inhibitor, full curve]"
same,Potency,[3],"inconclusive: 23.7 µM [inhibitor, partial curve]"
same,Potency,[2],active: 13 µM
C=C1[C@@H](C)[C@H]2[C@H](Cc3ccccc3)NC(=O)[C@]23OC(=O)/C=C/C(=O)CCC[C@@H](C)C/C=C/[C@H]3[C@@H]1O,Potency,[1],active: 0.708 µM
same,Potency,Furin (Homo sapiens),inactive
same,Potency,[3],active: 8.19 µM
same,Potency,Papain (Carica papaya),inactive
COC(=O)c1c(NC(=O)CCCOc2cccc(C)c2)sc2c1C(C(=O)OC)CC2 (stereo unspecified),Potency,[1],"inconclusive: 18.3 µM [inhibitor, partial curve, poor fit]"
same,Potency,[2],active: 2.52 µM
CC[C@H](C)/C=C(C)/C=C/C1=CC2=CC(=O)[C@]3(C)OC(=O)[C@@H](C(C)=O)[C@@H]3C2=CO1,Potency,[1],inactive
same,Potency,[3],"inconclusive: 20.2 µM [inhibitor, partial curve, poor fit]"
same,Potency,[2],"inconclusive: 5.54 µM [inhibitor, partial curve]"
NC(Cc1c[nH]c2ccc(O)cc12)C(=O)O (stereo unspecified),Potency,[1],inactive
same,Potency,[2],inactive
C/C(=N\N=C(N)N)c1cc(NC(=O)CCCCCCCCC(=O)Nc2cc(/C(C)=N/N=C(N)N)cc(/C(C)=N/N=C(N)N)c2)cc(/C(C)=N/N=C(N)N)c1,Potency,[1],inactive
same,Potency,Furin (Homo sapiens),active: 11.6 µM
same,Potency,[3],active: 13 µM
CCN(CC)C(=S)SSC(=S)N(CC)CC,Potency,[1],active: 12.6 µM
same,Potency,Papain (Carica papaya),"inconclusive: 14.6 µM [inhibitor, partial curve, poor fit]"
Cn1sc(=O)n(Cc2ccccc2)c1=O,Potency,[1],"inconclusive: 41 µM [inhibitor, single point]"
same,Potency,Furin (Homo sapiens),"inconclusive: 16.3 µM [inhibitor, partial curve]"
O=C(c1cc(-c2ccco2)[nH]n1)N1CCC(n2cnc3ccccc32)C1 (stereo unspecified),Potency,[1],"inconclusive: 0.919 µM [inhibitor, full curve]"
same,Potency,[3],"inconclusive: 20.6 µM [inhibitor, partial curve]"
same,Potency,[2],"inconclusive: 14.2 µM [inhibitor, partial curve]"
C=C1C(=O)O[C@@H]2[C@H]1CC(=O)[C@H](C)[C@@](O)(C(=O)/C=C/C)[C@H]2OC(=O)C(C)CC (stereo partly specified),Potency,[1],"inconclusive: 5.07 µM [inhibitor, full curve]"
same,Potency,[4],"inconclusive: 6.38 µM [inhibitor, full curve]"
same,Potency,[2],"inconclusive: 6.21 µM [inhibitor, partial curve]"
same,Potency,[5],inactive
Clc1cc(Cl)c(OCC#CI)cc1Cl,Potency,[1],"inconclusive: 5.65 µM [inhibitor, full curve]"
same,Potency,Furin (Homo sapiens),active: 8.96 µM
O=C(O)c1cc(-c2ccc(/C=C3\SC(=S)N(Cc4ccccc4)C3=O)o2)ccc1Cl,Potency,[1],inactive
same,Potency,Papain (Carica papaya),"inconclusive: 2.91 µM [inhibitor, full curve]"
CC(O)(C#Cc1ccc2c(c1)N(c1nc(N)ncc1Cl)CC2)c1nccs1 (stereo unspecified),Potency,[1],active: 2.06 µM
same,Potency,Furin (Homo sapiens),"inconclusive: 23.1 µM [inhibitor, partial curve]"
same,Potency,[5],"inconclusive: 6.51 µM [inhibitor, partial curve]"
C=CC(=O)N1C/C(=C\c2ccc([N+](=O)[O-])cc2)C(=O)/C(=C/c2ccc([N+](=O)[O-])cc2)C1,Potency,[1],"inconclusive: 0.58 µM [inhibitor, full curve]"
same,Potency,[3],active: 2.91 µM
same,Potency,[2],"inconclusive: 7.11 µM [inhibitor, partial curve]"
C[n+]1c2cc(N)ccc2cc2ccc(N)cc21 (tested in a mixture with another compound),Potency,[1],"inconclusive: 4.61 µM [inhibitor, full curve]"
same,Potency,Furin (Homo sapiens),"inconclusive: 18.3 µM [inhibitor, partial curve]"
same,Potency,[3],"inconclusive: 20.6 µM [inhibitor, partial curve]"
same,Potency,Papain (Carica papaya),"inconclusive: 18.3 µM [inhibitor, partial curve]"

# A different layout for some results above.
structure (smiles)	measurement	setting	value
O=C(O)c1cc(-c2ccc(/C=C3\SC(=S)N(Cc4ccccc4)C3=O)o2)ccc1Cl	Potency	Papain (Carica papaya)	inconclusive: 2.91 µM [inhibitor, full curve]
CC(O)(C#Cc1ccc2c(c1)N(c1nc(N)ncc1Cl)CC2)c1nccs1 (stereo unspecified)	Potency	[1]	active: 2.06 µM
same	Potency	Furin (Homo sapiens)	inconclusive: 23.1 µM [inhibitor, partial curve]

# Source: PubChem BioAssay (NCATS)
